± gives the standard deviation. Only a part is listed here, and it is no random draw. Many entries were measured with a wide error.

One assay relates to MIWI (PIWIL1) piRISC loaded with L1MC piRNA (30 nt). Description: pre-steady-state target cleavage rate (min^-1); MIWI and MILI are mouse PIWI proteins and EfPiwi is from a freshwater sponge; tags in brackets are library labels; higher = faster piRNA-guided slicing of the target. The note with it: guide: L1MC piRNA 5'p-UAACUAAAUACUAUGCAAGCUGUAGGUCCU; auxiliary factor: 500 nM mouse GTSF1. Summed up: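 In Cleave-'n-Seq, a transcribed, DNA-blocked target RNA library (0.1 nM) was combined with 1 nM active affinity-purified piRISC bearing one synthetic guide, with or without 500 nM GTSF1 partner protein. Reactions ran in HEPES–potassium acetate buffer at 33 °C for 0–8 or 0–960 min. Uncleaved targets were sequenced and normalised to depth and to weakly complementary targets, three trials were pooled, and k3 was capped at 0.0001 min^-1. The pre-steady-state cleavage rate was obtained by fitting a burst-and-steady-state model.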
UCCUGGAUGUCGAUGGAUACUAUUUAGUUA: the “pre-steady-state target cleavage rate” value stood at 0.000383 ± 0.017.
Same read-out and setting: to UGGACCUACAGCUUGCAUAGUAUUAAGAUA belongs 0.174 ± 0.028.
Take ACGACGUACAGCUUGCAUAGUAUUUAGUUA: the “pre-steady-state target cleavage rate” value is 1.55 ± 0.071.
On to ACGACCUACUGCUUGCAUAGUAUUUAGUUA, for which the “pre-steady-state target cleavage rate” value was found to be 1.51 ± 0.054.
The same measure, in the same setting: under AGGACCUUCAGCUUGGAUAGUAUUUAGUUA stands 1.48 ± 0.052.
Consider UCCACCUACAACUUGCAUAGUAUUUAGUUA, for which the “pre-steady-state target cleavage rate” value was determined as 0.869 ± 0.025.
Consider AGGACCUACCGCUUGCAUAGUAUUUAGUUA, for which the “pre-steady-state target cleavage rate” value came out at 1.43 ± 0.082.
In the case of ACGACCUACAGCUUGCAAAGUAUUUAGUUA, the “pre-steady-state target cleavage rate” value was 1.56 ± 0.057.
As to AGGACCUACAGCUAGCAUAGUAUUUAGUUA, the “pre-steady-state target cleavage rate” value came out at 1.16 ± 0.061.
Consider UGGUCGUACAGCUUGCAUAGUAUUUAGUUA, for which the “pre-steady-state target cleavage rate” value is 1.33 ± 0.056.
For the sequence UCGACCAACAGGUUGCAUAGUAUUUAGUUA, the “pre-steady-state target cleavage rate” value was 1.16 ± 0.049.
Still for that read-out and setting: under AGGACCUACAGCUGGCAUAGUAUUUAGUUA stands 1.29 ± 0.057; under UCCACCUUGUGCUUGCAUAGUAUUUACAAA, 0.0809 ± 0.013; under UGGACGCUACAGCUUGCAUAGUAUUUAGUUA, 1.15 ± 0.076.
The same measure, in the same setting: under UGGACCUACAGCUUGCUAAGUAUUUAGUUA stands 0.2 ± 0.022; under UCGACCUACAGCAUGCAUAGUAUUUAGUAA, 0.99 ± 0.072; under UGGACCUACAGCUUGCAUAGAUUUAGUUA, 0.00309 ± 0.0038.
On the same count and under the same terms, under AGGACCUACAGCUUGCAUAGUAAAAACAAA stands 0.268 ± 0.068; under UGGAGCCUACAGCUUGCAUAGUAUUUAGUUA, 1.41 ± 0.1.
In the case of AGCACCUACAGCAUGCAUAGUAUUUAGUUA, the “pre-steady-state target cleavage rate” value stood at 1.02 ± 0.13.
The same measure, in the same setting: under UCCUGCUACAGCAUGCAUAGUAAUUAGUUA stands 0.73 ± 0.077; under CGGACCUACAGCUUGCAUAGUAUUUAGUUA, 0.743 ± 0.028; under UCGACGUACAGCUUGCUUAGUAUUUAGUUA, 1.63 ± 0.09.
With UCGACCUACAGCAAGCAUAGUAUUUAGUAA, the “pre-steady-state target cleavage rate” value was found to be 0.818 ± 0.066.
As for ACCUCCUACAGCUUGCAUAGUAUUUAGUAA, the “pre-steady-state target cleavage rate” value was found to be 0.85 ± 0.046.
As for AGGACCUAACAGCUUGCAUAGUAUUUAGUUA, the “pre-steady-state target cleavage rate” value amounted to 1.1 ± 0.059.
Consider “UCGACCUACAGCUUGCAUAGUAUUUAGUUA [g2:g28:cont:t1A]”, for which the “pre-steady-state target cleavage rate” value was found to be 1.56 ± 0.056.
On the same count and under the same terms, to UCGACCUACAGCUUGCAUAGUAUUGAGUUA belongs 0.499 ± 0.042; to UGGACCUACAGCUUGCAUACAUUUUAGAAA, 0.00165 ± 0.0053; to UGGACGUACAGCUUGCAUAGUAAUUAGUUA, 0.725 ± 0.048.
Regarding UGGACCUACAGCUUGCAAUCUAUUUUCAAA, the “pre-steady-state target cleavage rate” value is 0.00162 ± 0.005.
On the same count and under the same terms, to UGGACCUACAGCUUCGAUAGUAUUUUCAAA belongs 0.0028 ± 0.0032; to UGGACCUACAGCUUCGUUAGUAUUUACAAA, 0.00108 ± 0.0057; to UCCUGGAACAGCUUGCAAAGUAUAUAGUUA, 0.459 ± 0.037.
On to UGGACCUACAGCUUGCAUACAUUUUUCAAA, for which the “pre-steady-state target cleavage rate” value was determined as 0.00119 ± 0.0057.
As to UCCACCAACUGCUUGCAUAGUAUUUAGUUA, the “pre-steady-state target cleavage rate” value worked out at 0.828 ± 0.036.
On the same count and under the same terms, under UCGACCUAACAGCUUGCAUAGUAUUUAGUUA stands 1.15 ± 0.069; under UCCACCUACAGCUUGCUUAGUAUUUAGUUA, 1.16 ± 0.05; under UGGACCUACACCUUGGAUAGUAUUUAGUUA, 0.815 ± 0.069.
Take UCGACCUACAGCUUGGUUAGUAUUUAGUUA: the “pre-steady-state target cleavage rate” value was 1.42 ± 0.058.

Still in this assay, the particulars now being: guide: L1MC piRNA 5'p-UAACUAAAUACUAUGCAAGCUGUAGGUCCU; auxiliary factor: none (no GTSF1).
As to UCCUGGAUGUCGAUGGAUACUAUUUAGUUA, the “pre-steady-state target cleavage rate” value is 0.000394 ± 0.013.
As for UGGACCUACAGCUUGCAUAGUAUUAAGAUA, the “pre-steady-state target cleavage rate” value is 0.00558 ± 0.0024.
For the sequence ACGACGUACAGCUUGCAUAGUAUUUAGUUA, the “pre-steady-state target cleavage rate” value came out at 0.077 ± 0.013.
As to ACGACCUACUGCUUGCAUAGUAUUUAGUUA, the “pre-steady-state target cleavage rate” value is 0.0792 ± 0.013.
On to AGGACCUUCAGCUUGGAUAGUAUUUAGUUA, for which the “pre-steady-state target cleavage rate” value was found to be 0.0657 ± 0.012.
With UCCACCUACAACUUGCAUAGUAUUUAGUUA, the “pre-steady-state target cleavage rate” value came out at 0.0505 ± 0.0067.
Consider AGGACCUACCGCUUGCAUAGUAUUUAGUUA, for which the “pre-steady-state target cleavage rate” value was determined as 0.0866 ± 0.017.
On the same count and under the same terms, under ACGACCUACAGCUUGCAAAGUAUUUAGUUA stands 0.0528 ± 0.011; under AGGACCUACAGCUAGCAUAGUAUUUAGUUA, 0.0412 ± 0.0085.
On to UGGUCGUACAGCUUGCAUAGUAUUUAGUUA, for which the “pre-steady-state target cleavage rate” value was found to be 0.073 ± 0.0095.
The same measure, in the same setting: under UCGACCAACAGGUUGCAUAGUAUUUAGUUA stands 0.0326 ± 0.006; under AGGACCUACAGCUGGCAUAGUAUUUAGUUA, 0.0579 ± 0.011; under UCCACCUUGUGCUUGCAUAGUAUUUACAAA, 0.00196 ± 0.0022.
In the case of UGGACGCUACAGCUUGCAUAGUAUUUAGUUA, the “pre-steady-state target cleavage rate” value is 0.0759 ± 0.013.
For UGGACCUACAGCUUGCUAAGUAUUUAGUUA, the “pre-steady-state target cleavage rate” value turned out to be 0.00384 ± 0.002.
With UCGACCUACAGCAUGCAUAGUAUUUAGUAA, the “pre-steady-state target cleavage rate” value is 0.0189 ± 0.0064.
For the sequence UGGACCUACAGCUUGCAUAGAUUUAGUUA, the “pre-steady-state target cleavage rate” value was 0.0013 ± 0.0042.
Still for that read-out and setting: under AGGACCUACAGCUUGCAUAGUAAAAACAAA stands 0.00112 ± 0.0069.
Same read-out and setting: under UGGAGCCUACAGCUUGCAUAGUAUUUAGUUA stands 0.0757 ± 0.013.
Take AGCACCUACAGCAUGCAUAGUAUUUAGUUA: the “pre-steady-state target cleavage rate” value worked out at 0.0663 ± 0.022.
On the same count and under the same terms, under UCCUGCUACAGCAUGCAUAGUAAUUAGUUA stands 0.00723 ± 0.0026; under CGGACCUACAGCUUGCAUAGUAUUUAGUUA, 0.06 ± 0.0088.
Consider UCGACGUACAGCUUGCUUAGUAUUUAGUUA, for which the “pre-steady-state target cleavage rate” value was 0.0366 ± 0.0073.
UCGACCUACAGCAAGCAUAGUAUUUAGUAA: the “pre-steady-state target cleavage rate” value was determined as 0.00275 ± 0.0026.
Same read-out and setting: to ACCUCCUACAGCUUGCAUAGUAUUUAGUAA belongs 0.0351 ± 0.0072; to AGGACCUAACAGCUUGCAUAGUAUUUAGUUA, 0.0788 ± 0.016; to “UCGACCUACAGCUUGCAUAGUAUUUAGUUA [g2:g28:cont:t1A]”, 0.0936 ± 0.017.
As to UCGACCUACAGCUUGCAUAGUAUUGAGUUA, the “pre-steady-state target cleavage rate” value is 0.0477 ± 0.0089.
Take UGGACCUACAGCUUGCAUACAUUUUAGAAA: the “pre-steady-state target cleavage rate” value amounted to 0.00023 ± 0.012.
With UGGACGUACAGCUUGCAUAGUAAUUAGUUA, the “pre-steady-state target cleavage rate” value was 0.0371 ± 0.0089.
On the same count and under the same terms, to UGGACCUACAGCUUGCAAUCUAUUUUCAAA belongs 0.000276 ± 0.0099; to UGGACCUACAGCUUCGAUAGUAUUUUCAAA, 0.000553 ± 0.0087.
On to UGGACCUACAGCUUCGUUAGUAUUUACAAA, for which the “pre-steady-state target cleavage rate” value is 0.000239 ± 0.01.
Same read-out and setting: to UCCUGGAACAGCUUGCAAAGUAUAUAGUUA belongs 0.0164 ± 0.0061.
The same measure, in the same setting: under UGGACCUACAGCUUGCAUACAUUUUUCAAA stands 0.000209 ± 0.012; under UCCACCAACUGCUUGCAUAGUAUUUAGUUA, 0.0532 ± 0.0097; under UCGACCUAACAGCUUGCAUAGUAUUUAGUUA, 0.0849 ± 0.017.
Turning to UCCACCUACAGCUUGCUUAGUAUUUAGUUA, the “pre-steady-state target cleavage rate” value is 0.0305 ± 0.0053.
On to UGGACCUACACCUUGGAUAGUAUUUAGUUA, for which the “pre-steady-state target cleavage rate” value was found to be 0.0418 ± 0.0063.
As for UCGACCUACAGCUUGGUUAGUAUUUAGUUA, the “pre-steady-state target cleavage rate” value was determined as 0.00908 ± 0.0026.

The values are drawn from the supplement of paper PMC10338343.
